Measurements reported in PubChem BioAssay AID1259308 (NCATS, 2017).
Test: 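Knock-downs that increase output of a recombinant reporter protein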 (primary screen). Cells: human HEK293 embryonic kidney cells stably expressing firefly luciferase (HEK-CMV-Luc2-Hygro). Reagent: single siRNA against human genes, 0.8 pmol siRNA per well. Time to read-out: 72 h. Detection: 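Luciferase light (ONE-Glo) measured on one replicate plate set and viability (CellTiter-Glo) on the other, scaled to a negative control siRNA, with robust z-scores and luciferase per cell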. Direction: total luciferase, z-score: higher = more reporter protein produced. Call rule: 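An siRNA counts as active if its total luciferase robust z-score exceeds 3; genes with two or more such siRNAs out of three were retested with fresh siRNAs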. Calls: active = raised luciferase; inactive = no rise.
Shown is an unselected part of about 59,000 deposited reagents. About 1,510 of all reagents (2.6%) were called active. 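Calls use total luciferase alone and ignore viability, so some active siRNAs may act by altering cell number.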 The numbers tell different reagents against one gene apart. Further read-outs or replicates are left out here.

EIF2B2 #1
- total luciferase, z-score: -1.53
- Call: inactive

EIF2B2 #2
- total luciferase, z-score: -0.877
- Call: inactive

EIF2B2 #3
- total luciferase, z-score: -1.11
- Call: inactive

MSANTD4 #1
- total luciferase, z-score: 0.0374
- Call: inactive

MSANTD4 #2
- total luciferase, z-score: -0.0497
- Call: inactive

MSANTD4 #3
- total luciferase, z-score: -0.323
- Call: inactive

PARS2 #1
- total luciferase, z-score: 0.109
- Call: inactive

PARS2 #2
- total luciferase, z-score: -0.25
- Call: inactive

PARS2 #3
- total luciferase, z-score: 0.292
- Call: inactive

GEN1 #1
- total luciferase, z-score: 0.0501
- Call: inactive

GEN1 #2
- total luciferase, z-score: -1.39
- Call: inactive

GEN1 #3
- total luciferase, z-score: -1.12
- Call: inactive

GEN1 #4
- total luciferase, z-score: 0.0143
- Call: inactive

GEN1 #5
- total luciferase, z-score: -1.66
- Call: inactive

GEN1 #6
- total luciferase, z-score: 0.8
- Call: inactive

DHX58 #1
- total luciferase, z-score: 0.0516
- Call: inactive

DHX58 #2
- total luciferase, z-score: 0.0931
- Call: inactive

DHX58 #3
- total luciferase, z-score: -0.158
- Call: inactive

RRP1B #1
- total luciferase, z-score: 0.468
- Call: inactive

RRP1B #2
- total luciferase, z-score: 0.439
- Call: inactive

RRP1B #3
- total luciferase, z-score: -2.56
- Call: inactive

KCNA4 #1
- total luciferase, z-score: -0.659
- Call: inactive

KCNA4 #2
- total luciferase, z-score: -0.0858
- Call: inactive

KCNA4 #3
- total luciferase, z-score: 1.88
- Call: inactive

POLE3 #1
- total luciferase, z-score: -0.124
- Call: inactive

POLE3 #2
- total luciferase, z-score: 0.815
- Call: inactive

POLE3 #3
- total luciferase, z-score: -0.255
- Call: inactive

PXN #1
- total luciferase, z-score: 0.396
- Call: inactive

PXN #2
- total luciferase, z-score: -0.344
- Call: inactive

PXN #3
- total luciferase, z-score: 0.309
- Call: inactive

RGL1 #1
- total luciferase, z-score: -0.222
- Call: inactive

RGL1 #2
- total luciferase, z-score: -1.24
- Call: inactive

RGL1 #3
- total luciferase, z-score: -1.29
- Call: inactive

A stretch from the list above, for reference:
PXN #1
- total luciferase, z-score: 0.396
- Call: inactive

PXN #2
- total luciferase, z-score: -0.344
- Call: inactive
